# Assay results published in the supplement of paper PMC3334620.
# In all, about 33,000 sequences were measured (“E-score (-0.5 to 0.5)”: median about -0.015, highest 2% from about 0.3 on). This is one part of the list.
# Molecular target: T1, Abf1 (UniProt P14164)
# T1 sequence: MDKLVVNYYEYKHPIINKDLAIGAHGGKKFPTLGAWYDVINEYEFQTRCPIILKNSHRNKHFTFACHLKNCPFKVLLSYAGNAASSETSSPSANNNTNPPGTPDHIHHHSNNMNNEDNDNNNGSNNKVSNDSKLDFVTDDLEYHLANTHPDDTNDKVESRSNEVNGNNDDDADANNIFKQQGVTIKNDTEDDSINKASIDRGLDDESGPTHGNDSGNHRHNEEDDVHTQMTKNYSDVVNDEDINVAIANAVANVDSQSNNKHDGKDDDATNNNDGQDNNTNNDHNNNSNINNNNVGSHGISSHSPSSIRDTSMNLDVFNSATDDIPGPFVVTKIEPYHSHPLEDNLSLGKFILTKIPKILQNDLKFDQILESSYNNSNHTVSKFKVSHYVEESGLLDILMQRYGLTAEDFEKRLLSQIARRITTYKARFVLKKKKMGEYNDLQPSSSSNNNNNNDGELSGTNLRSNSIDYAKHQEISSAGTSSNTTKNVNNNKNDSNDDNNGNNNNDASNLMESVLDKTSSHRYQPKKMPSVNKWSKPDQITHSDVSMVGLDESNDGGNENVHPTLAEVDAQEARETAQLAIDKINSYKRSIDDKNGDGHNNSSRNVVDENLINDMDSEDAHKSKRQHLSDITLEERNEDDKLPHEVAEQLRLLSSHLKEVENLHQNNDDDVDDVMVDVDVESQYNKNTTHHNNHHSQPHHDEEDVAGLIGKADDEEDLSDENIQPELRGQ
# Assay: PBM E-score (8-mer binding enrichment) (E-score (-0.5 to 0.5)); higher = stronger / more preferred TF binding
# Conditions: protein concentration: 200 nM; construct: GST-full length
# In short: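 Masliner-normalised scans of fluorescent anti-GST signal were the basis for scoring. That signal came from GST-tagged yeast transcription factors applied at about 100-200 nM to double-stranded universal all-10-mer Agilent arrays on fresh or once-stripped slides. Each ungapped eight-base word, pooled with its reverse complement, received an E-score from the Universal PBM Analysis Suite.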
row,Sequence,PBM E-score
1,CTAATCGA,0.0457
2,AATACCGA,-0.0516
3,ACTCTGAA,-0.0391
4,CGTGACTA,0.269
5,AGTCCACA,-0.0724
6,AGCGCCTC,-0.266
7,CACTTCCA,0.00893
8,ACAGTATG,0.0512
9,CATATAAC,0.155
10,ACCCCACT,-0.13
11,CGGGTTCA,-0.0588
12,AAGCACAG,-0.0627
13,AACATTAT,0.066
14,CAGATGTA,0.0309
15,AAATGTAT,0.152
16,CAAGCCGA,0.0899
17,GGTCTTCA,-0.0846
18,TCTAGCCA,0.0826
19,CCCTTCGC,-0.16
20,ACTCCGGG,0.0329
21,GGGGATAA,0.0264
22,AAAGCAAC,0.00349
23,AACAGTCG,0.0359
24,CGCTACTA,0.105
25,GCCAAGTA,-0.151

# Single entries from the results shown:
# PBM E-score with CCCTTCGC reads -0.16
# PBM E-score with AAATGTAT reads 0.152
# PBM E-score with ACAGTATG reads 0.0512
# PBM E-score with ACTCCGGG reads 0.0329
# PBM E-score with CACTTCCA reads 0.00893
# PBM E-score with GCCAAGTA reads -0.151
# PBM E-score with CATATAAC reads 0.155

# Further records follow.

row,Sequence,PBM E-score
1,GACAATGA,-0.00952
2,ATCATATC,0.276
3,ATAGAGAT,0.0356
4,GAGTGCCA,-0.212
5,GCAGCCGA,-0.112
6,GCGCTGTA,-0.132
7,GCACGAAA,0.336
8,ATTCGTGA,0.15
9,ACATTGCG,0.119
10,AACACCCA,-0.274
11,AAATATAT,0.125
12,AACAACCG,0.0667
13,ATCAACGA,0.224
14,CAGGACAC,-0.127
15,TATAATCA,0.281
16,CAAGAATC,0.145
17,CGCAAAAA,-0.0831
18,TGCTGACA,0.0722
19,CGGATGTA,-0.199
20,AGGAGGCA,-0.229
21,GAATCGCC,-0.0976
22,TTGGTAAA,0.0251
23,AGGCTTCC,-0.198
24,CCCGTGAA,0.131
25,TGATCTAA,0.244

row,Sequence,PBM E-score
1,GTAGAAAA,0.169
2,GGTCTGAA,0.0869
3,AGCCGATA,-0.0881
4,ACTTACGG,0.196
5,ATGAGGCC,-0.104
6,GCTGTGGA,0.0882
7,ACAGACGG,0.0841
8,AAATGGCC,0.0293
9,CTTGACTC,-0.124
10,CCGGGCCC,-0.124
11,AGTACCAA,0.173
12,AGCACGTC,0.106
13,ACGGCGGA,0.0744
14,CAAAGGGA,0.0101
15,TGCGTTAA,0.108
16,CAAATTCC,0.0741
17,CCATAGAA,-0.21
18,CACGGTTA,0.199
19,GTATCACA,0.24
20,TTACAGAA,-0.0816
21,AACATCAC,0.283
22,GGAATCGA,-0.197
23,AGTCGTGG,0.0697
24,GAACAAAC,0.0209
25,ATACACAC,0.0494

row,Sequence,PBM E-score
1,CGATAGTA,-0.0157
2,CGATTGAA,-0.0852
3,AGGCCACG,-0.135
4,TAGCGCGA,0.179
5,CTGTTTGC,0.0145
6,CTACATGA,0.0313
7,ATTGTTCA,0.0589
8,CTAGGCGA,-0.111
9,GACTTTAC,-0.0271
10,AGCGTTAA,-0.0696
11,ACGTGTTA,0.113
12,AGATAGCA,-0.0558
13,AGAAGGAA,-0.278
14,ACGGGAAC,-0.0402
15,AGGTTTCA,0.0143
16,ACTGAGTG,0.0323
17,GAAGTGTC,0.00769
18,CCTGCTGC,-0.149
19,ACTAAGCA,0.109
20,ACGCACCA,-0.101
21,CATTCTAA,0.113
22,AATCACTC,0.224
23,ATCAGAGA,0.121
24,CATATACC,-0.0104
25,GTTTCGCA,0.0355

row,Sequence,PBM E-score
1,GGGGCAGA,-0.105
2,ACCCGCGT,-0.203
3,TACTATCA,0.246
4,GTCAGCAC,0.136
5,CTTGATAA,0.138
6,GCCACGAA,0.0988
7,ATACTTTC,0.126
8,ACTCTGTC,0.0112
9,AAAACAGA,0.126
10,CGCTCGCA,0.128
11,CGTGGGAG,0.0501
12,CCGAACCC,-0.233
13,CTTCCTAA,-0.135
14,CCGCACTA,0.0091
15,ATATGTCC,0.0624
16,ACCCCCAT,-0.291
17,CCCGAGTA,-0.105
18,CCCCAAAC,-0.275
19,ACTCGAAG,-0.175
20,CCCTCTCA,-0.268
21,TAATCCAA,0.0772
22,GCCGCTTA,-0.0315
23,CCGAAGAG,-0.209
24,GGGCGTGA,0.214
25,ACCGAGAG,-0.167

# Reprinted at random: two records from the list, in no set order.
row,Sequence,PBM E-score
17,CCCGAGTA,-0.105
19,ACTCGAAG,-0.175

# Following part

row,Sequence,PBM E-score
1,AACGGACC,-0.168
2,ACAAGTTC,-0.0616
3,AGCTGTCG,0.1
4,CCAATGAG,-0.0959
5,TATACAAA,0.14
6,GTCGACAA,-0.112
7,AGGCAAAA,0.0649
8,ATCACAGA,0.0333
9,AATTACGC,-0.0379
10,CTGACGGC,0.109
11,GGAACTAA,-0.0359
12,AGCCAGAT,-0.124
13,GCCCTAGC,-0.249
14,CATATTTA,0.135
15,AAGATAAT,0.0926
16,CCGCGGTC,-0.149
17,GCGGTCAA,-0.12
18,GAAGTGCA,-0.0967
19,AGTGGGGC,-0.275
20,TTTGCAAA,0.0778
21,GTCTAGCA,-0.0788
22,TCACGTCA,0.331
23,ACTCCAAG,-0.00256
24,ACGGTAAA,0.092
25,TAAAGTGA,0.282

row,Sequence,PBM E-score
1,GAGTTGCC,0.0297
2,ACAATGCG,0.0477
3,ACAGTGTA,-0.0386
4,ACCCTTGA,0.0206
5,CCCTCGAG,-0.305
6,AGTTGCGA,-0.027
7,ACCTGCAG,-0.00304
8,AACTGTCA,0.13
9,CATCTCGC,0.0691
10,AGCTAGTC,-0.0461
11,AAAAACGC,-0.014
12,AGATGACG,0.246
13,AGAGCGAC,0.0708
14,CCTATGAG,0.0388
15,AAGACGTC,0.0368
16,AATCTAGA,-0.114
17,CGGACCGC,-0.199
18,GGTGCTCA,-0.151
19,ATCTAACG,0.101
20,AGAAGCAC,-0.157
21,ACGTTAAG,0.005
22,ACTGATAG,-0.0879
